In publication PMC9303266:

Biological target: T1, SNA-3 (yeast two-hybrid fusion) (C. elegans) (UniProt Q9GYR5)
T1 sequence: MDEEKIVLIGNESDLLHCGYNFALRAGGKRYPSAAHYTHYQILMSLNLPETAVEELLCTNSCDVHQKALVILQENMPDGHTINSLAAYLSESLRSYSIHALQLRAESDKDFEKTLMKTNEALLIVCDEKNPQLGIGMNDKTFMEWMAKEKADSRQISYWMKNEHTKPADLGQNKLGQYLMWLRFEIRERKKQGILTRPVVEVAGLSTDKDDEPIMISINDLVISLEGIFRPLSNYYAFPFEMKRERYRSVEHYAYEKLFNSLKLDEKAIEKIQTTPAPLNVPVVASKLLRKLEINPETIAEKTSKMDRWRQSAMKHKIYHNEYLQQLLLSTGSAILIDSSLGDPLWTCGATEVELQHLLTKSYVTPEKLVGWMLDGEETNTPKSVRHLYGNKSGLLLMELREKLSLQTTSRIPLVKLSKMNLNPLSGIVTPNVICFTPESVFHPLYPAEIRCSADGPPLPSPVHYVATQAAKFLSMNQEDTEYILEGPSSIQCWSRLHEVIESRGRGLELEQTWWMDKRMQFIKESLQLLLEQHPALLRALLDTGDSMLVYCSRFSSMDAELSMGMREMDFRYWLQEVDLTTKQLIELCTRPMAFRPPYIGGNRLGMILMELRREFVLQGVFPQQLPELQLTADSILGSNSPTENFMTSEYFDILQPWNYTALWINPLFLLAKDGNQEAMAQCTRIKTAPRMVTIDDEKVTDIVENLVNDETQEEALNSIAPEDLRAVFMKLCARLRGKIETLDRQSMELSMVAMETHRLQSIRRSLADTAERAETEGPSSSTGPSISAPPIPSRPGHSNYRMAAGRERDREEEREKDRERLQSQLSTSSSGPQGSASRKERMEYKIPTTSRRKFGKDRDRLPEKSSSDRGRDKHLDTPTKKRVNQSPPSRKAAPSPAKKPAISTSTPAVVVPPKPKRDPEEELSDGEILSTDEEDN
Experiment: two-hybrid; Gal4 DNA-binding domain fusions (pGBKT7, Y2HGold) mated with Gal4 activation domain fusions (pGADT7, Y187); growth on -Ade -His -Leu -Trp compared with -Leu -Trp

binding | Substance
binds | SUT-1 (yeast two-hybrid fusion) (C. elegans)
binds | SUT-1 with the N-terminal motif deleted (yeast two-hybrid fusion) (C. elegans) (domain or fragment)

Results are given in words; binding and its absence hold for the method and conditions named. Binding calls can cover weak binding; strength is not graded here. Where a sequence is shown, tags or fusion partners need not be part of it.
